{"source": "patent US6031073A", "about": "(La Jolla Pharmaceutical Company, priority 1997, dated 2000)", "experiment": "general procedure: Fmoc solid-phase peptide synthesis; (Fmoc)-Gly-Wang resin; MBHA resin; Rink amide MBHA resin; DIC/HOBt", "conditions": "for cyclisation yield / final HPLC purity: cyclisation step; for crude HPLC purity: whole synthesis, analytical RP-HPLC (TFA system and TEAP system)", "key": {"[1]": {"conditions": "TEAP system, thioether ring, run 1"}, "[2]": {"conditions": "TFA system, thioether ring, run 1"}, "[3]": {"conditions": "thioether ring, sequence written open"}, "[4]": {"conditions": "TEAP system, thioether ring, sequence written open"}, "[5]": {"conditions": "TFA system, thioether ring, sequence written open"}}, "note": "Plain letter strings leave the end groups untold. Strings that start with PEPTIDE1 are HELM notation: dots part the residues, brackets hold end groups and non-standard residues.", "data": [{"substance": "(Fmoc)AGPHsLGVLGKLCPG", "values": [{"measurement": "cyclisation yield", "value": 19, "unit": "%"}, {"measurement": "final HPLC purity", "setting": "TEAP system", "value": 94.0, "unit": "%"}, {"measurement": "final HPLC purity", "setting": "TFA system", "value": 97.0, "unit": "%"}]}, {"substance": "AGPHsLGVLGKLCPG", "values": [{"measurement": "final HPLC purity", "setting": "TFA system", "value": 100, "unit": "%"}, {"measurement": "cyclisation yield", "setting": "run 1", "value": 33, "unit": "%"}, {"measurement": "cyclisation yield", "setting": "run 2", "value": 94, "unit": "%"}]}, {"substance": "GPCLGVLGKLHsPG [2G3-METE]", "values": [{"measurement": "final HPLC purity", "setting": "TEAP system, thioether ring", "value": 84.4, "unit": "%"}, {"measurement": "final HPLC purity", "setting": "TFA system, thioether ring", "value": 85.3, "unit": "%"}, {"measurement": "cyclisation yield", "setting": "thioether ring", "value": 36, "unit": "%"}]}, {"substance": "GPSLGVLGKLHcPG [d-2G3-METE]", "values": [{"measurement": "final HPLC purity", "setting": "[1]", "value": 91.6, "unit": "%"}, {"measurement": "final HPLC purity", "setting": "[2]", "value": 98.4, "unit": "%"}, {"measurement": "cyclisation yield", "setting": "thioether ring, run 1", "value": 16, "unit": "%"}]}, {"substance": "GPSLGVLGKLHcPG [l-2G3-METE]", "values": [{"measurement": "final HPLC purity", "setting": "[1]", "value": 84.4, "unit": "%"}, {"measurement": "final HPLC purity", "setting": "[2]", "value": 85.3, "unit": "%"}, {"measurement": "cyclisation yield", "setting": "thioether ring, run 1", "value": 29, "unit": "%"}]}, {"substance": "GPSLILAPDRC", "values": [{"measurement": "cyclisation yield", "setting": "[3]", "value": 27, "unit": "%"}]}, {"substance": "HsHNLGQLC", "values": [{"measurement": "crude HPLC purity", "value": 57.2, "unit": "%"}]}, {"substance": "HsLGVLGKLC", "values": [{"measurement": "cyclisation yield", "value": 51, "unit": "%"}, {"measurement": "final HPLC purity", "setting": "TEAP system", "value": 94.4, "unit": "%"}, {"measurement": "final HPLC purity", "setting": "TFA system", "value": 92.8, "unit": "%"}]}, {"substance": "HsLGVLGKLHc", "values": [{"measurement": "cyclisation yield", "value": 48, "unit": "%"}, {"measurement": "final HPLC purity", "setting": "TEAP system", "value": 98.0, "unit": "%"}, {"measurement": "final HPLC purity", "setting": "TFA system", "value": 97.1, "unit": "%"}]}, {"substance": "HsLRSLGEMC", "values": [{"measurement": "crude HPLC purity", "value": 34.8, "unit": "%"}]}, {"substance": "HsYGTLGKLC", "values": [{"measurement": "crude HPLC purity", "value": 71.6, "unit": "%"}]}, {"substance": "PEPTIDE1{G.P.[Abu4yl].L.G.V.L.G.K.L.C.P.G}$PEPTIDE1,PEPTIDE1,3:R3-11:R3$$$V2.0", "values": [{"measurement": "cyclisation yield", "value": 84, "unit": "%"}, {"measurement": "final HPLC purity", "setting": "TFA system", "value": 100, "unit": "%"}]}, {"substance": "PEPTIDE1{G.P.[Abu4yl].L.G.V.L.G.K.L.[Hc].P.G}$PEPTIDE1,PEPTIDE1,3:R3-11:R3$$$V2.0", "values": [{"measurement": "cyclisation yield", "value": 75, "unit": "%"}]}, {"substance": "SLGVLGKLC", "values": [{"measurement": "final HPLC purity", "setting": "[4]", "value": 97.6, "unit": "%"}, {"measurement": "final HPLC purity", "setting": "[5]", "value": 97.1, "unit": "%"}, {"measurement": "cyclisation yield", "setting": "[3]", "value": 49, "unit": "%"}]}, {"substance": "SLGVLGKLHc", "values": [{"measurement": "final HPLC purity", "setting": "[4]", "value": 93.4, "unit": "%"}, {"measurement": "final HPLC purity", "setting": "[5]", "value": 94.8, "unit": "%"}, {"measurement": "cyclisation yield", "setting": "[3]", "value": 52, "unit": "%"}]}]}
